Only a part is listed here, and it is no random draw.

Compound in this assay: COC(=O)C#Cc1ccccc1 [methyl 3-phenylpropiolate]
Put plainly: log2 ratio of iodoacetamide-alkyne labeling of the cysteine site, DMSO over compound (competition); higher = stronger covalent engagement of the cysteine by the compound, active = 1 or more. To be noted: 500 µM; treatment time 1 h; system: HEK293T cell lysate. The method in brief:
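After 1 h at ambient temperature with vehicle or electrophile (500 µM), HEK293T lysate (2 mg/mL) was labelled for 1 h with iodoacetamide alkyne and clicked to sCIP-TMT reagents. Pooled samples were trypsin-digested overnight at 37 °C, streptavidin-enriched, acid-eluted and analysed by Orbitrap Eclipse LC-MS/MS with FAIMS, then quantified in FragPipe over three replicates with duplicate channels. A cysteine's log2 competition ratio is its mean control-channel over mean compound-channel reporter intensity. Cysteines quantified in only one replicate were not included.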
In the case of VCPIP1 C1178 (UniProt Q96JH7), the “log2 ratio of iodoacetamide-alkyne labeling” value (“log2 ratio” below) is inactive: 0.129.

MACROD1 C199 (UniProt Q9BQ69): the “log2 ratio” value is inactive: -0.0967.

Take DNAJC7 C7 (UniProt Q99615): the “log2 ratio” value was inactive: 0.0737.

Consider UniProt Q9BQ61_C165, for which the “log2 ratio” value is inactive: 0.332.

Turning to UniProt Q96RR1_C289, the “log2 ratio” value was inactive: -0.209.

Take MYBBP1A C614 (UniProt Q9BQG0): the “log2 ratio” value was inactive: -0.148.

For SCYL1 C309 (UniProt Q96KG9), the “log2 ratio” value is inactive: 0.548.

As for ZFR C922 (UniProt Q96KR1), the “log2 ratio” value was inactive: 0.289.

Regarding PURB C238 (UniProt Q96QR8), the “log2 ratio” value is inactive: 0.179.

Consider VPS39 C681 (UniProt Q96JC1), for which the “log2 ratio” value was inactive: 0.0205.

Regarding VAT1 C50 (UniProt Q99536), the “log2 ratio” value is inactive: 0.122.

As for PSMD1 C898 (UniProt Q99460), the “log2 ratio” value is inactive: 0.167.

SCYL1 C512 (UniProt Q96KG9): the “log2 ratio” value was inactive: 0.205.

Turning to L3MBTL3 C515 (UniProt Q96JM7), the “log2 ratio” value is inactive: 0.108.

Take SRPK1 C455 (UniProt Q96SB4): the “log2 ratio” value is inactive: 0.0406.

PIK3R4 C899 (UniProt Q99570): the “log2 ratio” value is inactive: 0.087.

For HSD17B10 C214 (UniProt Q99714), the “log2 ratio” value was inactive: 0.734.

For the target ZFR C844 (UniProt Q96KR1), the “log2 ratio” value is inactive: 0.319.

On to ARAP1 C774 (UniProt Q96P48), for which the “log2 ratio” value is inactive: 0.384.

For the target MMS19 C386 (UniProt Q96T76), the “log2 ratio” value was inactive: 0.445.

Turning to NCAPG C843 (UniProt Q9BPX3), the “log2 ratio” value was inactive: 0.347.

Take SH3GL1 C147 (UniProt Q99961): the “log2 ratio” value was inactive: 0.168.

PDLIM2 C289 (UniProt Q96JY6): the “log2 ratio” value is inactive: 0.116.

SPAG5 C1035 (UniProt Q96R06): the “log2 ratio” value was inactive: 0.251.

For NSUN5 C308 (UniProt Q96P11), the “log2 ratio” value was inactive: 0.317.

Turning to RNF5 C27 (UniProt Q99942), the “log2 ratio” value was inactive: 0.0657.

As to UniProt Q99590_C450, the “log2 ratio” value is inactive: 0.563.

Turning to SNX27 C247 (UniProt Q96L92), the “log2 ratio” value is inactive: 0.286.

For KIF2C C245 (UniProt Q99661), the “log2 ratio” value is inactive: 0.243.

SRPK1 C356 (UniProt Q96SB4): the “log2 ratio” value was inactive: 0.281.

In the case of RUFY1 C351 (UniProt Q96T51), the “log2 ratio” value is inactive: 0.308.

Consider SPEN C1134 (UniProt Q96T58), for which the “log2 ratio” value is inactive: 0.43.

As for NCAPG C177 (UniProt Q9BPX3), the “log2 ratio” value is inactive: 0.306.

For the target NGLY1 C197 (UniProt Q96IV0), the “log2 ratio” value was inactive: 0.0457.

With VPS35 C653 (UniProt Q96QK1), the “log2 ratio” value was inactive: 0.298.

With CRBN C287 (UniProt Q96SW2), the “log2 ratio” value is inactive: 0.13.

The record behind these values is the supplement of paper PMC11006884.
